# Experimental data: USRE37534E1, “Pharmaceutical compositions” (BTG International Limited, priority 1982, dated 2002)
# Chains of the proteins cited; added tags and fusions are not shown. Residues count along the entry.
# UniProt P02787, 20-698: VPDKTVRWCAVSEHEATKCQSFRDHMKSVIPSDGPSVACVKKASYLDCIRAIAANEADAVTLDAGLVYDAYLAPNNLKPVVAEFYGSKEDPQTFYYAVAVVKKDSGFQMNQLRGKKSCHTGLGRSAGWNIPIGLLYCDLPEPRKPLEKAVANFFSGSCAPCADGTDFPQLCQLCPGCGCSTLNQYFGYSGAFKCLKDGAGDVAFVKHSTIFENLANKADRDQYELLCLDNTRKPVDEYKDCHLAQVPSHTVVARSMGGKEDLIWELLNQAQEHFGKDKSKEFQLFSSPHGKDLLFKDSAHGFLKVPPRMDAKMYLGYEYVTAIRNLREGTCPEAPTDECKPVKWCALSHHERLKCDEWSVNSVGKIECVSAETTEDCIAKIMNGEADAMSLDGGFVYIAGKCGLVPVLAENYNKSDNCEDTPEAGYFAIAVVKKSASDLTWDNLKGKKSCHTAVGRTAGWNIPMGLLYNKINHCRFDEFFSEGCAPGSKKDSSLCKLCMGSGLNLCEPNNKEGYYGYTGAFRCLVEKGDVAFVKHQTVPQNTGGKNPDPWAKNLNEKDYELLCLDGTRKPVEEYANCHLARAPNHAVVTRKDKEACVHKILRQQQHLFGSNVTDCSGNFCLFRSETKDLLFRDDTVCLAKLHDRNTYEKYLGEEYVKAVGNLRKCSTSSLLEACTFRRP
# At least one structure is not confirmed: it was looked up by name or label, or the drawing left a doubt.
# Target: apotransferrin (Homo sapiens, UniProt P02787)
# Assay: Exchange of iron(III) between complex and apotransferrin
# Type: biochemical
compound,measurement,value
Cc1occc(=O)c1[O-].Cc1occc(=O)c1[O-].Cc1occc(=O)c1[O-].[Fe+3] [Fe^III (maltol)3],half life for the exchange of iron(III) between complex and apotransferrin,1 min
